Data as given in PubChem BioAssay AID1508587 (Peter MacCallum Cancer Centre, 2020)

- Assay: 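Retest of knockdowns boosting BRAF inhibitor action on lactate release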 (follow-up of hits)
- Cell system: human WM266.4 melanoma cells with a BRAF V600 mutation
- Reagent: single siRNA against human genes, 25 nM
- Timing: 96 h
- Challenge: vemurafenib 300 nM (about IC25), given 48 h after transfection for 48 h
- Detection: 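Per-cell lactate from absorbance divided by DAPI nucleus counts, compared with and without vemurafenib, relative to non-targeting siRNA, mean of 2 replicates; nuclear counts also give cell number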
- Scale: lactate per cell, drug vs no drug: higher = less drug-induced drop in lactate per cell
- Rule for the call: 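Enhancer call for any duplex whose drug versus no-drug per-cell lactate ratio is below 0.55 (2 SD beneath non-targeting average); genes confirmed when at least 2 of their 4 duplexes qualify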
This is an unselected part of about 1,600 reagents tested. Of all reagents, 623 (39%) got an active call. 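Calls are for each duplex; lactate ratios contain extreme outliers.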 Entries without a mark were called inactive. Reagents against one gene are numbered here. Further read-outs or replicates are left out here.

lactate per cell, drug vs no drug, by gene symbol and reagent
PITPNC1 (phosphatidylinositol transfer protein cytoplasmic 1): #1 0.76; #2 0.6; #3 0.61; #4 0.55
TPRA1 (transmembrane protein adipocyte associated 1): #1 0.5 (active); #2 0.52 (active); #3 0.45 (active); #4 0.67
HTR5A (5-hydroxytryptamine receptor 5A): #1 0.68; #2 0.68; #3 0.6; #4 0.75
SGTA: #1 0.12 (active); #2 0.92; #3 0.65; #4 1.01
PLAGL1 (PLAG1 like zinc finger 1): #1 0.52 (active); #2 0.31 (active); #3 0.42 (active); #4 0.54 (active)
PDIK1L (PDLIM1 interacting kinase 1 like): #1 0.62; #2 0.47 (active); #3 0.49 (active); #4 0.74
PPP3CC (protein phosphatase 3 catalytic subunit gamma): #1 0.37 (active); #2 0.59; #3 0.5 (active); #4 0.82
CD9 (CD9 molecule): #1 0.73; #2 0.57; #3 0.28 (active); #4 0.83

Entries above whose target name begins with H or h (4):
lactate per cell, drug vs no drug, by gene symbol and reagent
HTR5A (5-hydroxytryptamine receptor 5A): #1 0.68; #2 0.68; #3 0.6; #4 0.75

Additional records follow:
lactate per cell, drug vs no drug, by gene symbol and reagent
GPR19 (G protein-coupled receptor 19): #1 0.45 (active); #2 0.64; #3 0.76; #4 0.62
RCOR1 (REST corepressor 1): #1 0.38 (active); #2 0.12 (active); #3 0.45 (active); #4 0.65
HNRNPF (heterogeneous nuclear ribonucleoprotein F): #1 1.19; #2 0.82; #3 0.67; #4 0.6
CCL18 (C-C motif chemokine ligand 18): #1 0.5 (active); #2 0.48 (active); #3 0.56; #4 0.6
PRSS16 (serine protease 16): #1 0.4 (active); #2 0.55; #3 0.46 (active); #4 0.57
